Results from the supplement of paper PMC10849652.
The list shows a part of the results.

Sequences of proteins named here, by UniProt entry; tags and fusion partners are left off. A change or cut given only in a name is not applied to a line headed by its entry.
UniProt P07355, whole entry, looked up: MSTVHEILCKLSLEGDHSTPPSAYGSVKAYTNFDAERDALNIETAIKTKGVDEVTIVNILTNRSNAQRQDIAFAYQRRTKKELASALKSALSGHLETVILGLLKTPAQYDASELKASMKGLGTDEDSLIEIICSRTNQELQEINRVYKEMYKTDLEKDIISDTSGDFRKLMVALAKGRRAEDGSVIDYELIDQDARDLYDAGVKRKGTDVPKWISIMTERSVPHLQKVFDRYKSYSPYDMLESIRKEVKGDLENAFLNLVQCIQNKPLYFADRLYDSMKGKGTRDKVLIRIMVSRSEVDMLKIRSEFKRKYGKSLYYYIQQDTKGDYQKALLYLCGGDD
UniProt P08133: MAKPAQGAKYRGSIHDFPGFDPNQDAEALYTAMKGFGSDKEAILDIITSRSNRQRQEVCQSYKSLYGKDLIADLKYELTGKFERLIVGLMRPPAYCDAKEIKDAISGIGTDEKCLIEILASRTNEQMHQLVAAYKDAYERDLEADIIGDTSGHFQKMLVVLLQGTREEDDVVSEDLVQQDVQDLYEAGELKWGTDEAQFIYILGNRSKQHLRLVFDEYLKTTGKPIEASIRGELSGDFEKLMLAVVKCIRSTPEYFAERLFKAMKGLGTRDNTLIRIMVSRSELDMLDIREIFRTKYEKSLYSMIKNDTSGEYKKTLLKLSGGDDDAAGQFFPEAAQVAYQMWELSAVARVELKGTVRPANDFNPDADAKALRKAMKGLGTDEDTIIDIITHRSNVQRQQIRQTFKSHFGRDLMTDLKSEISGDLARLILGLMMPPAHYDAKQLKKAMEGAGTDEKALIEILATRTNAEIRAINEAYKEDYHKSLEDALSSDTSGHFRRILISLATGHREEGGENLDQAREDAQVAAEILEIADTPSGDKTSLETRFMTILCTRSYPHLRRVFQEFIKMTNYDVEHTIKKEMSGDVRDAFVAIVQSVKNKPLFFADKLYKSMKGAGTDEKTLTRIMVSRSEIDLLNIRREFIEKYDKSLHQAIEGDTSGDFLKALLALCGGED
UniProt P04083: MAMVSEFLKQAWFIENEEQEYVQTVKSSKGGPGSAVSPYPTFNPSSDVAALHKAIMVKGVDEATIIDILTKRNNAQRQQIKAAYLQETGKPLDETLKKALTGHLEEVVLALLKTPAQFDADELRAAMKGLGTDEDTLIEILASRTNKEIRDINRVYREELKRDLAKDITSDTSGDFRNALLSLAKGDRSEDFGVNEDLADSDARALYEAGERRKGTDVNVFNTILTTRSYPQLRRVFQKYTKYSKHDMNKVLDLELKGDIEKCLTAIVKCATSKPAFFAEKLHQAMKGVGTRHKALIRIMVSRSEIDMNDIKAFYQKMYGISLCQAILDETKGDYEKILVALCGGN
UniProt P48444: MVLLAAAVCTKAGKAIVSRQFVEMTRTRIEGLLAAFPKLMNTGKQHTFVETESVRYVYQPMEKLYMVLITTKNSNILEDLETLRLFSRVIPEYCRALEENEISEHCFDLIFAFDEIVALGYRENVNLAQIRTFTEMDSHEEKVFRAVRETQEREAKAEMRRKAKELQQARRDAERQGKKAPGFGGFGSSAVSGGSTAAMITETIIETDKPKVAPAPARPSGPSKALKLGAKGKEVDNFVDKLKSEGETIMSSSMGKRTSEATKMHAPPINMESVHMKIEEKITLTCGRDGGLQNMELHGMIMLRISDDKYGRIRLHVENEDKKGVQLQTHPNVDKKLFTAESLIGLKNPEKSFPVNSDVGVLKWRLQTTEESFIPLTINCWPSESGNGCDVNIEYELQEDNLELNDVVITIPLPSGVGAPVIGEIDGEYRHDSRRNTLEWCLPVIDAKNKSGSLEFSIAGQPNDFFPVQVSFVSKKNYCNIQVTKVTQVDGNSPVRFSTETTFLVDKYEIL
UniProt Q6UXV4: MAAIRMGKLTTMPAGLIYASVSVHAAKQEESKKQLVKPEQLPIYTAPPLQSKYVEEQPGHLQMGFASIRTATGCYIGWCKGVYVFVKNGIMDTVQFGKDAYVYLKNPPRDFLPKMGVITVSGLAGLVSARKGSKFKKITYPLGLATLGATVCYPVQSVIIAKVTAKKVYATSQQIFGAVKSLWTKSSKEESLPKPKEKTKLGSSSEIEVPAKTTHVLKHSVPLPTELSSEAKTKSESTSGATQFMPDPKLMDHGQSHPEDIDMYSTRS
UniProt Q63HQ0: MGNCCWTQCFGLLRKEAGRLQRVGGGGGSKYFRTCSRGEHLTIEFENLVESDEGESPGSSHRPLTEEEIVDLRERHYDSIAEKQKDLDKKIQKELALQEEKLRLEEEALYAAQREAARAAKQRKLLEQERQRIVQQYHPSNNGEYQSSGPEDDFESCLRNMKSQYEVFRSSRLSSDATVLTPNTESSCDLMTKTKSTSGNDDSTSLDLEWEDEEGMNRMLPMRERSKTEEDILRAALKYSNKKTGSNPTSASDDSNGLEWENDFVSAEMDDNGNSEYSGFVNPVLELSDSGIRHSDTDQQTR
UniProt Q92619: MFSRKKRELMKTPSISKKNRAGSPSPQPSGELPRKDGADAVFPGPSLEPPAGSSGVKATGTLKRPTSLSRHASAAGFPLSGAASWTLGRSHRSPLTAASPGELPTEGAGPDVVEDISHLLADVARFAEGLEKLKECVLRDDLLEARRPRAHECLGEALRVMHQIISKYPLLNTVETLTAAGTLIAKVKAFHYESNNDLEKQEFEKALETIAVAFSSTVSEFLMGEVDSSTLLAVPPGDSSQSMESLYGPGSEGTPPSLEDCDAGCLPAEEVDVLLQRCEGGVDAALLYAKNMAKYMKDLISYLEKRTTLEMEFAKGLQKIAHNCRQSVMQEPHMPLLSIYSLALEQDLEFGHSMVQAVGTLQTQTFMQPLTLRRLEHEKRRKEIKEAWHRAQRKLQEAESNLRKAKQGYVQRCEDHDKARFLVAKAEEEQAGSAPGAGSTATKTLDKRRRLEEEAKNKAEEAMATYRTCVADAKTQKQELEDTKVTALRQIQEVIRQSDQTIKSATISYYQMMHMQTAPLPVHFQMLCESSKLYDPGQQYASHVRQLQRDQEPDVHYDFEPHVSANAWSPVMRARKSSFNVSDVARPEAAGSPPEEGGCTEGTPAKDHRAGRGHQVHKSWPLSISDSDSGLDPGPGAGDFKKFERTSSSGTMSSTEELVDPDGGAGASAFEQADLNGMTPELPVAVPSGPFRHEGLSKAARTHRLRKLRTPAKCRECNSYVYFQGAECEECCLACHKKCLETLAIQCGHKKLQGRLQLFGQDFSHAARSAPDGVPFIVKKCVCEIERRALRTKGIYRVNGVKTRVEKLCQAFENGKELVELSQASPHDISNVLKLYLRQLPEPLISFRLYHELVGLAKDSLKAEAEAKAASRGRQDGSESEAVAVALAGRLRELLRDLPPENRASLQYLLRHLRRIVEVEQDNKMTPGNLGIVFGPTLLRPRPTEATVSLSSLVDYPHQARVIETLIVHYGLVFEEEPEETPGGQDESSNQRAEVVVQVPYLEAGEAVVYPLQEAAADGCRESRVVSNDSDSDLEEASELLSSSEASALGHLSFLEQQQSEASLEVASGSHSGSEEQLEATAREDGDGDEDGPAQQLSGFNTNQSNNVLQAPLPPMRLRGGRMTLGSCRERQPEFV
UniProt P78540: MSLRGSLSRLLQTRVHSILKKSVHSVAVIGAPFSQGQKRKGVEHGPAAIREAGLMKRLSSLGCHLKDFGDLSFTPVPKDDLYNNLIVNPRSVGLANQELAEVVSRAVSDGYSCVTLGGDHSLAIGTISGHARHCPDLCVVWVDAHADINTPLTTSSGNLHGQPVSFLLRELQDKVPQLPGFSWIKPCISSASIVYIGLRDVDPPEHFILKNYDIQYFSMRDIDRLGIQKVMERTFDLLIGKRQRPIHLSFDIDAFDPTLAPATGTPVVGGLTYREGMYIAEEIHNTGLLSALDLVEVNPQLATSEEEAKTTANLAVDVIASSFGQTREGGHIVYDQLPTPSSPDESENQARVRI
UniProt Q9UJX3, whole entry, looked up: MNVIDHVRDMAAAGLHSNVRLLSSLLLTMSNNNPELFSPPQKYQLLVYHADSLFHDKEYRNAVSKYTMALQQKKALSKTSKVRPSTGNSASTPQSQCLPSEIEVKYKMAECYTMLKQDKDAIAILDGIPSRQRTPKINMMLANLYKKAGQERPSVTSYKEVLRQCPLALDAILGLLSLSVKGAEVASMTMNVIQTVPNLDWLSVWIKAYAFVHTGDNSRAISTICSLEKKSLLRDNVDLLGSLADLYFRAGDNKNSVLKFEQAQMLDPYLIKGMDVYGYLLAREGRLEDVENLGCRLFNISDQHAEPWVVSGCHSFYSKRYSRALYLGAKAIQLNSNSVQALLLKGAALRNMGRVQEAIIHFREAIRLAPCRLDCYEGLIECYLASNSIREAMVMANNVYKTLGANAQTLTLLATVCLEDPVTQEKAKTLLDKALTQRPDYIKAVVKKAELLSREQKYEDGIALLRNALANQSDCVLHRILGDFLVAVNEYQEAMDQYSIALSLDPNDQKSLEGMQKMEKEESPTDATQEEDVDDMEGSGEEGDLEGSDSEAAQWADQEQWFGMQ
UniProt P20073: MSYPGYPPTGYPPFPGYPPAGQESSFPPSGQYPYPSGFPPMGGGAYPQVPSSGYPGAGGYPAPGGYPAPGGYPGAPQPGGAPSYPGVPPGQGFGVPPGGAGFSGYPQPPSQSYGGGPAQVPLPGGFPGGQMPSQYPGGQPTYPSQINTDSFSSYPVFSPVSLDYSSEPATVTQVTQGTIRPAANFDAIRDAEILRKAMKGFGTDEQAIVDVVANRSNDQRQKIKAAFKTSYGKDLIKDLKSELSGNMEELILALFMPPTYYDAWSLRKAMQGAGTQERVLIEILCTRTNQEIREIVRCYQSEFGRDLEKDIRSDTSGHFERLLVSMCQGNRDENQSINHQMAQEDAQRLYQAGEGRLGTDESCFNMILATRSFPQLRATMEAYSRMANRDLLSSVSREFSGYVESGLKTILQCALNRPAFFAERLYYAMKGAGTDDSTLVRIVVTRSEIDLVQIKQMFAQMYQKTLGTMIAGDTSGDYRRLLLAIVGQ
UniProt Q9NP61: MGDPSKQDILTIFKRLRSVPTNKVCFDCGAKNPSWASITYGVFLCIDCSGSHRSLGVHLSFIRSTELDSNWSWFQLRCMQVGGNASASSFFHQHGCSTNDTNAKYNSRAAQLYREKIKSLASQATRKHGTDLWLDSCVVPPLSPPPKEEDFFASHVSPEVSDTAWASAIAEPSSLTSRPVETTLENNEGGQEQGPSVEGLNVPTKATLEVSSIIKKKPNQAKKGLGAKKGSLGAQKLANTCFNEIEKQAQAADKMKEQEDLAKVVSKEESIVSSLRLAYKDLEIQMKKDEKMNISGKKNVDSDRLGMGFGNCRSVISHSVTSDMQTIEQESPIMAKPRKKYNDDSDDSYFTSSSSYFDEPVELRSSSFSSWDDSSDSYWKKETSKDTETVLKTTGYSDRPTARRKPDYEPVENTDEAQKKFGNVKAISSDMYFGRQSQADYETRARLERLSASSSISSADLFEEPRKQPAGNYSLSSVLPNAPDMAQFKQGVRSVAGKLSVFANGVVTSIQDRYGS
UniProt Q8N392: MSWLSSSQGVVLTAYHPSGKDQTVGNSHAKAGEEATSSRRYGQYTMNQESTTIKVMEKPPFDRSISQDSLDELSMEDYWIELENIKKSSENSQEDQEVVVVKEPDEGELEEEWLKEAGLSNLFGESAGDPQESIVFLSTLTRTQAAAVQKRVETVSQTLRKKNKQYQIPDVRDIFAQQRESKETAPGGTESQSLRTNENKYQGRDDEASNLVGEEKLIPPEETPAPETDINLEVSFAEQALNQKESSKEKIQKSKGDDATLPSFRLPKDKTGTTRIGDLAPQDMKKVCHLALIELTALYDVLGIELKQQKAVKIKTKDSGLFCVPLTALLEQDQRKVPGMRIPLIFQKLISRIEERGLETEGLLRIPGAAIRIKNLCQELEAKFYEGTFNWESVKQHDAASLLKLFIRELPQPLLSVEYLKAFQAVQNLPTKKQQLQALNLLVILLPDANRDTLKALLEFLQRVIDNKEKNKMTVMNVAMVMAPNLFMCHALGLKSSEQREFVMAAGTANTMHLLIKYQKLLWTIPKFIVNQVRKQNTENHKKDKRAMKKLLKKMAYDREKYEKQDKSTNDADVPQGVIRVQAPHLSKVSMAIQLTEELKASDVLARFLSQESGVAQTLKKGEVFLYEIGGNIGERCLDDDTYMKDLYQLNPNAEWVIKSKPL

Columns and labels:
Assay in all cases: log2 fold change, soluble protein after heating vs DMSO (PISA); higher = thermal stabilisation; K562 cells, 10 uM, 30 min; active = over 0.2 and 3.5 SD of the protein, either way, in both replicates (recomputed)
[1] = compound: CN1CCN(CCOc2cc(OC3CCOCC3)c3c(Nc4c(Cl)ccc5c4OCO5)ncnc3c2)CC1 [saracatinib]
Outline: (§1)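 Aliquots of K562 cells (2×10^6 cells/mL) treated with 10 μM compound for 30 min were heated for 3 min over 48°C-58°C. After pooling and extraction in PBS with 0.5% NP-40 at 4°C, soluble protein from a 21,000xg, 90 min spin was quantified by TMTpro 16plex LC-MS/MS with channel sums equalised. Thermal stability is expressed against control samples, from duplicates, as a log2 fold change.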

[2] = compound: CN1CCN(c2nc(C3=C(c4c[nH]c5ccccc45)C(=O)NC3=O)c3ccccc3n2)CC1 [sotrastaurin]
Outline: as §1

[3] = compound: CN1CC[C@H](c2c(O)cc(O)c3c(=O)cc(-c4ccccc4Cl)oc23)[C@H](O)C1 [alvocidib]
Outline: as §1

[4] = compound: CN1CCc2c(c3ccccc3n2Cc2ccc(C(=O)NO)cc2)C1 [Tubastatin A]
Outline: as §1

[5] = compound: CNC(=O)C1=CC=CC=C1NC2=NC(=NC=C2Cl)NC3=C(C=C(C=C3)N4CCOCC4)OC
Outline: as §1

[6] = compound: CNC(=O)c1ccc(Nc2ncc(C(F)(F)F)c(NCc3nccnc3N(C)S(C)(=O)=O)n2)cc1 [defactinib]
Outline: as §1

[7] = compound: CNCc1ccc(-c2[nH]c3cc(F)cc4c3c2CCNC4=O)cc1 [rucaparib]
Outline: as §1

[8] = compound: CNc1nc(-c2ccc3c(N)n[nH]c3c2)cc(N2C[C@@H](C(=O)NC3CCCCC3)CC[C@H]2C)n1
Outline: as §1

[9] = compound: COC(=O)N[C@@H](C)CNc1nccc(-c2cn(C(C)C)nc2-c2cc(Cl)cc(NS(C)(=O)=O)c2F)n1 [encorafenib]
Outline: as §1

[10] = compound: COC(=O)[C@H](CCSC)NC(=O)C1=C(C=C(C=C1)NC[C@H](CS)N)C2=CC=CC=C2
Outline: as §1

[11] = compound: COC1=CC=C(C=C1)CN2C=CC3=C2C=C(C=C3)C(=O)NO
Outline: as §1

[12] = compound: CON(C)C(=O)N1N=C(c2cc(F)ccc2F)S[C@@]1(CCCN)c1ccccc1 [filanesib]
Outline: as §1

[13] = compound: CO[C@H]1C[C@@H]2CC[C@@H](C)[C@@](O)(O2)C(=O)C(=O)N2CCCC[C@H]2C(=O)O[C@H]([C@H](C)C[C@@H]2CC[C@H](n3cnnn3)[C@H](OC)C2)CC(=O)[C@H](C)/C=C(\C)[C@@H](O)[C@@H](OC)C(=O)[C@H](C)C[C@H](C)/C=C/C=C/C=C/1C [zotarolimus]
Outline: as §1

[14] = compound: COc1cc(C(=O)O)ccc1NC(=O)[C@@H]1N[C@@H](CC(C)(C)C)[C@](C#N)(c2ccc(Cl)cc2F)[C@H]1c1cccc(Cl)c1F [idasanutlin]
Outline: as §1

[15] = compound: COc1cc(Nc2ncc3c(n2)-c2ccc(Cl)cc2C(c2c(F)cccc2OC)=NC3)ccc1C(=O)O [alisertib]
Outline: as §1

[16] = compound: COc1cc2nc(-c3cc(F)ccc3O)nc(N[C@@H]3CNC[C@H]3C(C)(C)O)c2cc1OC
Outline: as §1

[17] = compound: COc1cc2ncnc(Nc3ccc(F)c(Cl)c3)c2cc1OCCCN1CCOCC1 [gefitinib]
Outline: as §1

[18] = compound: COc1cccc2cc(-c3nc([C@H]4CC[C@H](C(=O)O)CC4)n4ncnc(N)c34)[nH]c12
Outline: as §1

[19] = compound: CS(=O)(=O)CCNCc1ccc(-c2ccc3ncnc(Nc4ccc(OCc5cccc(F)c5)c(Cl)c4)c3c2)o1 [lapatinib]
Outline: as §1

[20] = compound: CS(=O)(=O)N1CCN(Cc2cc3nc(-c4cccc5[nH]ncc45)nc(N4CCOCC4)c3s2)CC1 [pictilisib]
Outline: as §1

Measured: log2 fold change

ARFGEF2 (UniProt Q9Y6D5)
inactive: [1] 0.026 | [2] 0.044 | [3] -0.061 | [4] 0.041 | [5] 0.053 | [6] -0.034 | [7] -0.021 | [8] 0.02 | [9] 0.058 | [10] -0.046 | [11] 0.013 | [12] 0.012 | [13] 0.035 | [14] -0.101 | [15] -0.032 | [16] 0.187 | [17] 0.01 | [18] 0.007 | [19] -0.003 | [20] 0.046

ANXA2 isoform 2 (UniProt P07355)
inactive: [1] 0.01 | [2] -0.057 | [3] -0.089 | [4] -0.02 | [5] 0.021 | [6] -0.026 | [7] -0.1 | [8] 0.011 | [9] 0.015 | [10] -0.014 | [11] -0.009 | [12] -0.124 | [13] 0.013 | [14] -0.041 | [15] 0.007 | [16] -0.075 | [17] 0.019 | [18] -0.003 | [19] -0.002 | [20] -0.1

ANXA6 (UniProt P08133)
inactive: [1] -0.026 | [2] 0.05 | [3] -0.093 | [4] 0.022 | [5] 0.028 | [6] -0.089 | [7] -0.037 | [8] -0.049 | [9] 0.03 | [10] -0.028 | [11] -0.011 | [12] -0.023 | [13] 0.002 | [14] -0.041 | [15] -0.012 | [16] 0.069 | [17] 0.014 | [18] 0.039 | [19] 0 | [20] -0.001

ANXA1 (UniProt P04083)
inactive: [1] -0.032 | [2] -0.112 | [3] -0.103 | [4] 0.029 | [5] 0.067 | [6] -0.084 | [7] -0.029 | [8] 0.031 | [9] 0.071 | [10] -0.01 | [11] 0.04 | [12] -0.077 | [13] 0.041 | [14] -0.041 | [15] 0.101 | [16] 0.07 | [17] 0.033 | [18] -0.037 | [19] -0.048 | [20] 0.06

ARCN1 (UniProt P48444)
inactive: [1] 0.013 | [2] -0.011 | [3] -0.016 | [4] -0.017 | [5] 0.016 | [6] -0.068 | [7] -0.019 | [8] -0.035 | [9] 0.078 | [10] -0.02 | [11] 0.001 | [12] 0.016 | [13] 0.002 | [14] -0.005 | [15] -0.051 | [16] 0.079 | [17] 0.042 | [18] -0.006 | [19] 0.003 | [20] 0.02

APOOL (UniProt Q6UXV4)
inactive: [1] 0.056 | [2] 0.035 | [3] 0.041 | [4] -0.019 | [5] 0.003 | [6] -0.011 | [7] 0.023 | [8] -0.03 | [9] -0.007 | [10] 0.029 | [11] -0.01 | [12] -0.031 | [13] -0.029 | [14] -0.026 | [15] -0.061 | [16] -0.006 | [17] 0.003 | [18] 0.072 | [19] -0.003 | [20] 0.013

AP1AR (UniProt Q63HQ0)
inactive: [1] 0.003 | [2] 0.139 | [3] 0.03 | [4] -0.024 | [5] 0.127 | [6] -0.072 | [7] 0.007 | [8] -0.041 | [9] -0.086 | [10] -0.002 | [11] -0.056 | [12] 0.078 | [13] 0.009 | [14] -0.025 | [15] -0.125 | [16] 0.021 | [17] 0.115 | [18] -0.009 | [19] -0.059 | [20] 0.096

AP1B1 (UniProt Q10567)
inactive: [1] 0.037 | [2] -0.006 | [3] -0.009 | [4] -0.009 | [5] 0.011 | [6] -0.091 | [7] 0.019 | [8] 0.013 | [9] 0.012 | [10] -0.014 | [11] 0.035 | [12] -0.028 | [13] 0.035 | [14] -0.045 | [15] -0.041 | [16] -0.059 | [17] 0.023 | [18] 0.031 | [19] 0.091 | [20] 0.043

ARHGAP45 isoform 2 (UniProt Q92619)
inactive: [1] -0.005 | [2] -0.111 | [3] -0.005 | [4] -0.066 | [5] -0.016 | [6] -0.111 | [7] 0.178 | [8] 0.005 | [9] 0.039 | [10] 0.101 | [11] -0.012 | [12] 0.036 | [13] -0.043 | [14] 0.08 | [15] -0.011 | [16] -0.026 | [17] 0.072 | [18] 0.089 | [19] 0.001 | [20] 0.076

ARG2 (UniProt P78540)
inactive: [1] 0.079 | [2] 0.035 | [3] -0.002 | [4] -0.026 | [5] -0.032 | [6] -0.006 | [7] -0.046 | [8] -0.062 | [9] -0.059 | [10] -0.014 | [11] -0.057 | [12] -0.066 | [13] -0.08 | [14] -0.066 | [15] 0.04 | [16] -0.033 | [17] -0.025 | [18] 0.092 | [19] 0.018 | [20] 0.027

ANO10 (UniProt Q9NW15)
inactive: [1] 0.022 | [2] -0.004 | [3] -0.089 | [4] 0.036 | [5] 0.047 | [6] -0.029 | [7] -0.042 | [8] -0.051 | [9] -0.01 | [10] 0 | [11] -0.016 | [12] -0.093 | [13] -0.001 | [14] -0.074 | [15] -0.014 | [16] 0.067 | [17] 0.006 | [18] -0.008 | [19] -0.002 | [20] 0.049

ANAPC7 (UniProt Q9UJX3)
inactive: [1] -0.012 | [2] -0.055 | [3] -0.094 | [4] 0.045 | [5] -0.009 | [6] -0.051 | [7] 0.079 | [8] 0.007 | [9] 0.028 | [10] -0.02 | [11] 0.028 | [12] 0.013 | [13] 0.063 | [14] -0.005 | [15] -0.134 | [16] -0.001 | [17] -0.03 | [18] -0.055 | [19] 0.023 | [20] -0.051

ANTXR2 isoform 4 (UniProt P58335)
inactive: [1] -0.01 | [2] 0.046 | [3] -0.008 | [4] 0.009 | [5] -0.01 | [6] 0.007 | [7] -0.045 | [8] -0.053 | [9] 0.024 | [10] 0.03 | [11] 0.025 | [12] 0.014 | [13] -0.016 | [14] 0.019 | [15] -0.015 | [16] -0.034 | [17] 0.01 | [18] 0.064 | [19] -0.018 | [20] 0.09

ANXA7 (UniProt P20073)
inactive: [1] 0.013 | [2] -0.024 | [3] -0.064 | [4] -0.004 | [5] 0.106 | [6] -0.043 | [7] 0.008 | [8] -0.034 | [9] -0.004 | [10] -0.014 | [11] 0.051 | [12] -0.028 | [13] 0.053 | [14] -0.027 | [15] -0.081 | [16] -0.001 | [17] -0.006 | [18] -0.019 | [19] 0.019 | [20] 0.035

ARFGAP3 (UniProt Q9NP61)
inactive: [1] -0.027 | [2] -0.019 | [3] -0.108 | [4] 0.012 | [5] -0.012 | [6] -0.056 | [7] -0.012 | [8] -0.038 | [9] -0.026 | [10] 0.013 | [11] 0.028 | [12] 0.038 | [13] -0.019 | [14] -0.065 | [15] -0.021 | [16] 0.079 | [17] -0.018 | [18] 0.01 | [19] 0.039 | [20] -0.021

ARHGAP18 (UniProt Q8N392)
inactive: [1] -0.142 | [2] -0.062 | [3] -0.009 | [4] 0.106 | [5] 0.014 | [6] -0.034 | [7] 0.087 | [8] 0.083 | [9] 0.122 | [10] -0.09 | [11] 0.106 | [12] 0.018 | [13] 0.022 | [14] -0.08 | [15] -0.056 | [16] 0.244 | [17] -0.02 | [18] -0.076 | [19] -0.025 | [20] 0.107

Taken from the listing (2 entries):
ANTXR2 isoform 4 (UniProt P58335)
inactive: [1] -0.01 | [2] 0.046 | [3] -0.008 | [4] 0.009 | [5] -0.01 | [6] 0.007 | [7] -0.045 | [8] -0.053 | [9] 0.024 | [10] 0.03 | [11] 0.025 | [12] 0.014 | [13] -0.016 | [14] 0.019 | [15] -0.015 | [16] -0.034 | [17] 0.01 | [18] 0.064 | [19] -0.018 | [20] 0.09

ANXA7 (UniProt P20073)
inactive: [1] 0.013 | [2] -0.024 | [3] -0.064 | [4] -0.004 | [5] 0.106 | [6] -0.043 | [7] 0.008 | [8] -0.034 | [9] -0.004 | [10] -0.014 | [11] 0.051 | [12] -0.028 | [13] 0.053 | [14] -0.027 | [15] -0.081 | [16] -0.001 | [17] -0.006 | [18] -0.019 | [19] 0.019 | [20] 0.035
